Data published in paper PMC10367558.
No constants are given. Whether binding was seen depends on the method and setting. Binding seen in cells or lysates may run through a third protein. Some entries that bind do so weakly or less than the wild type.

Chains of the proteins cited; added tags and fusions are not shown.
UniProt P40763: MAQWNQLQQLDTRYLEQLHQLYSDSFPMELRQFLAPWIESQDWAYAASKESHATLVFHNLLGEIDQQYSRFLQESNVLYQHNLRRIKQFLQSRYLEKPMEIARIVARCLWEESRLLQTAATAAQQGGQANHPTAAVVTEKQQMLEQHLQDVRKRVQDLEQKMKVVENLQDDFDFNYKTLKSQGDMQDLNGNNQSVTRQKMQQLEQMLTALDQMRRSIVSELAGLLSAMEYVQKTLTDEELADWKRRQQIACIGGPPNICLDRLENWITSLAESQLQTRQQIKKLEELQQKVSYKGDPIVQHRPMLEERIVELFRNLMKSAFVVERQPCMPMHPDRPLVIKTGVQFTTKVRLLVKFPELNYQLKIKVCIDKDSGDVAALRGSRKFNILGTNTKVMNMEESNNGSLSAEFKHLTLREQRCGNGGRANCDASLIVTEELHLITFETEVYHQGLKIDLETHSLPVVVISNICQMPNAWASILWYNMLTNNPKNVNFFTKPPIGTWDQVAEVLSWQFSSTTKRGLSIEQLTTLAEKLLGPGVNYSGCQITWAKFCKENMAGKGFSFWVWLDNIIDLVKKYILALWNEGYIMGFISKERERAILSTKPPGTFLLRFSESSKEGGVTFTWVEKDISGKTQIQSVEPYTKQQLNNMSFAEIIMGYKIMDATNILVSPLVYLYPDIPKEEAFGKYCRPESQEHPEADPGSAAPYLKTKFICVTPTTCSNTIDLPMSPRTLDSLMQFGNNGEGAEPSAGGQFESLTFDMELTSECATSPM

Experiments:
HA-tagged STAT3 = HA-tagged STAT3 (UniProt P40763); assay: co-IP; HEK293T cells transfected with the indicated expressing plasmids (Flag-DBF4, STAT3, CDC7 wild type or D196N); precipitating antibody not told
[1] = molecular target: Signal transducer and activator of transcription 3 (STAT3) (human (endogenous in HCCLM3 and MHCC97H)) (UniProt P40763); assay: co-IP; endogenous proteins; cytoplasmic and nuclear fractions of MHCC97H cells transfected with siRNAs targeting XPO1 were separated and immunoprecipitated
[2] = molecular target: Signal transducer and activator of transcription 3 (STAT3) (human (endogenous in HCCLM3 and MHCC97H)) (UniProt P40763); assay: co-IP; endogenous proteins from whole cell lysates of HCC cells (HCCLM3, MHCC97H); Dynabeads Co-Immunoprecipitation Kit, antibody or IgG on beads, lysate incubated at 4°C for 30 minutes; also in cells with DBF4 depletion, or treated with TNF-α and selinexor

Row | binding (HA-tagged STAT3) | binding [1] | binding [2] | Binder
1 | no binding |  |  | CDC7^D196N (enzyme, UniProt O00311 1-574) MEASLGIQMDEPMAFSPQRDRFQAEGSLKKNEQNFKLAGVKKDIEKLYEAVPQLSNVFKIEDKIGEGTFSSVYLATAQLQVGPEEKIALKHLIPTSHPIRIAAELQCLTVAGGQDNVMGVKYCFRKNDHVVIAMPYLEHESFLDILNSLSFQEVREYMLNLFKALKRIHQFGIVHRDVKPSNFLYNRRLKKYALVNFGLAQGTHDTKIELLKFVQSEAQQERCSQNKSHIITGNKIPLSGPVPKELDQQSTTKASVKRPYTNAQIQIKQGKDGKEGSVGLSVQRSVFGERNFNIHSSISHESPAVKLMKQSKTVDVLSRKLATKKKAISTKVMNSAVMRKTASSCPASLTCDCYATDKVCSICLSRRQQVAPRAGTPGFRAPEVLTKCPNQTTAIDMWSAGVIFLSLLSGRYPFYKASDDLTALAQIMTIRGSRETIQAAKTFGKSILCSKEVPAQDLRKLCERLRGMDSSTPKLTSDIQGHASHQPAISEKTDHKASCLVQTPPGQYSGNSFKKGDSNSCEHCFDEYNTNLEGWNEVPDEAYDLLDKLLDLNPASRITAEEALLHPFFKDMSL
2 |  | binds | binds | Dumbbell former 4 (DBF4) (protein, UniProt Q9UBU7 1-674) MNSGAMRIHSKGHFQGGIQVKNEKNRPSLKSLKTDNRPEKSKCKPLWGKVFYLDLPSVTISEKLQKDIKDLGGRVEEFLSKDISYLISNKKEAKFAQTLGRISPVPSPESAYTAETTSPHPSHDGSSFKSPDTVCLSRGKLLVEKAIKDHDFIPSNSILSNALSWGVKILHIDDIRYYIEQKKKELYLLKKSSTSVRDGGKRVGSGAQKTRTGRLKKPFVKVEDMSQLYRPFYLQLTNMPFINYSIQKPCSPFDVDKPSSMQKQTQVKLRIQTDGDKYGGTSIQLQLKEKKKKGYCECCLQKYEDLETHLLSEQHRNFAQSNQYQVVDDIVSKLVFDFVEYEKDTPKKKRIKYSVGSLSPVSASVLKKTEQKEKVELQHISQKDCQEDDTTVKEQNFLYKETQETEKKLLFISEPIPHPSNELRGLNEKMSNKCSMLSTAEDDIRQNFTQLPLHKNKQECILDISEHTLSENDLEELRVDHYKCNIQASVHVSDFSTDNSGSQPKQKSDTVLFPAKDLKEKDLHSIFTHDSGLITINSSQEHLTVQAKAPFHTPPEEPNECDFKNMDSLPSGKIHRKVKIILGRNRKENLEPNAEFDKRTEFITQEENRICSSPVQSLLDLFQTSEEKSEFLGFTSYTEKSGICNVLDIWEEENSDNLLTAFFSSPSTSTFTGF
